These are yes or no findings as the source states them, for the method shown. Binding seen in cells or lysates may run through a third protein.
Target: T1, Unc93B1 overexpressed in a macrophage cell line (UniProt Q8VCW4)
T1 sequence: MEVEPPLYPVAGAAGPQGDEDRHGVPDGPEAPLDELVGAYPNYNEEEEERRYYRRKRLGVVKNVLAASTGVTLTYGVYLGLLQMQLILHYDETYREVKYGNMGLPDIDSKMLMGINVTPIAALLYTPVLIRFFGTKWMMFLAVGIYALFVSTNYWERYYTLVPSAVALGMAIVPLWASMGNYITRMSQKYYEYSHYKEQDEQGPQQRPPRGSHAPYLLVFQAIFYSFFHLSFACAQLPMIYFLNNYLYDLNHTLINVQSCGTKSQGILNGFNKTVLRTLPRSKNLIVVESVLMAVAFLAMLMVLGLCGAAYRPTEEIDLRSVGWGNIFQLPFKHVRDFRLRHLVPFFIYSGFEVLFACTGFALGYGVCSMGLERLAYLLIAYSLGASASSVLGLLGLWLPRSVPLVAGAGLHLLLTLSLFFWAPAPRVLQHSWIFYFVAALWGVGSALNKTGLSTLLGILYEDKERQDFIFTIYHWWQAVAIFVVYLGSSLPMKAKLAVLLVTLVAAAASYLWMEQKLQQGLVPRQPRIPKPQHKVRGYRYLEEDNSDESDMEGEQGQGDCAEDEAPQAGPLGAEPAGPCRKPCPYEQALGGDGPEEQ
Assay: co-IP; immunoprecipitation of Unc93B1 from a macrophage cell line transduced to overexpress it; immunoblot

With Rab5 the binding was “no binding”.

Reference: article PMC5693993
